Literature values as cited in publication PMC9369311, “Examination of Intracellular GPCR-Mediated Signaling with High Temporal Resolution” (International Journal of Molecular Sciences, 2022).

Conditions: previous study; cited from earlier work

For `CCN(CC)c1ccc2c(COP3(=O)OC[C@H]4O[C@@H](n5cnc6c(N)ncnc65)[C@H](O)[C@@H]4O3)cc(=O)oc2c1` (some centres unmarked) [DEACM-cAMP], the photochemical quantum yield is listed as 0.21.
For `O=C(O)CN(CC(=O)O)Cc1c(O)c(Br)cc2c(COC(=O)NCC(O)c3ccc(O)cc3)cc(=O)oc12` (centres unmarked) [BBHCMOC-octopamine], the photochemical quantum yield is listed as 0.11.
